PubChem BioAssay AID743454 – Peter MacCallum Cancer Centre – 2014

- Test: 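Genes whose loss kills vorinostat-resistant colon cancer cells under vorinostat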 (primary screen)
- Cells: human HCT116-VR colon cancer cells, selected for vorinostat resistance
- Reagents: siRNA pool against human genes, 40 nM siRNA pool
- Timing: vorinostat for 24 h, read-out about 72 h after transfection
- Challenge: vorinostat at 2.5 µM final
- Detection: 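Two measures, CellTiter-Fluor viability and luminescent caspase 3/7 activity, each as fold change against same-plate mock wells, mean of duplicates, then screen-wide robust z-score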
- Reading the numbers: viability robust z-score: higher = more viable cells than screen typical; caspase robust z-score: higher = more caspase 3/7 activity than screen typical
- Active means: 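Hits are knock-downs in viability class RV1/RV2 or caspase class CA1/CA2, excluding ones that killed cells in the no-drug cell-count arm; hits then retested with single siRNAs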
The whole screen tested about 18,000 reagents; shown is an unselected part. 450 of them (2.5%) count as active. 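Single biological run; no consistent viability z cut-off exists, so the class columns, not z-scores, define the calls.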

H4C2 [SID134315799]: viability hit class = no change; caspase hit class = no change; viability robust z-score = -1.5; caspase robust z-score = -0.4; Outcome = inactive
KLHDC7B [SID135622974]: viability hit class = no change; caspase hit class = no change; viability robust z-score = -0.9; caspase robust z-score = 5.08; Outcome = inactive
MICAL1 [SID134314802]: viability hit class = no change; caspase hit class = no change; viability robust z-score = 1.76; caspase robust z-score = -0.85; Outcome = inactive
SLC6A16 [SID152155513]: viability hit class = no change; caspase hit class = no change; viability robust z-score = -1.54; caspase robust z-score = 3.59; Outcome = inactive
SH3GL3 [SID135623003]: viability hit class = no change; caspase hit class = no change; viability robust z-score = -0.64; caspase robust z-score = 2.17; Outcome = inactive
PLAG1 [SID134315699]: viability hit class = no change; caspase hit class = CA2 (caspase activation); viability robust z-score = -2.7; caspase robust z-score = 5.63; Outcome = active
MRPS24 [SID135622552]: viability hit class = no change; caspase hit class = no change; viability robust z-score = -0.06; caspase robust z-score = -0.2; Outcome = inactive
UBE2T [SID152148214]: viability hit class = no change; caspase hit class = no change; viability robust z-score = -1.64; caspase robust z-score = 0.37; Outcome = inactive

3 entries from above, set out differently.
{"Gene": "PLAG1", "PubChem SID": "SID134315699", "viability hit class": "no change", "caspase hit class": "CA2 (caspase activation)", "viability robust z-score": -2.7, "caspase robust z-score": 5.63, "Outcome": "active"}
{"Gene": "MRPS24", "PubChem SID": "SID135622552", "viability hit class": "no change", "caspase hit class": "no change", "viability robust z-score": -0.06, "caspase robust z-score": -0.2, "Outcome": "inactive"}
{"Gene": "UBE2T", "PubChem SID": "SID152148214", "viability hit class": "no change", "caspase hit class": "no change", "viability robust z-score": -1.64, "caspase robust z-score": 0.37, "Outcome": "inactive"}

Continued.
IRF9 [SID152149883]: viability hit class = no change; caspase hit class = no change; viability robust z-score = -1.38; caspase robust z-score = 0.06; Outcome = inactive
CPSF2 [SID134317630]: viability hit class = no change; caspase hit class = no change; viability robust z-score = 1.09; caspase robust z-score = 1.01; Outcome = inactive
TBL1X [SID134316443]: viability hit class = no change; caspase hit class = no change; viability robust z-score = 0.9; caspase robust z-score = -0.26; Outcome = inactive
SHROOM3 [SID152149435]: viability hit class = no change; caspase hit class = no change; viability robust z-score = 1.54; caspase robust z-score = 1.05; Outcome = inactive
INSYN2A [SID135625455]: viability hit class = no change; caspase hit class = no change; viability robust z-score = 0.57; caspase robust z-score = -0.7; Outcome = inactive
PAF1 [SID135623970]: viability hit class = no change; caspase hit class = no change; viability robust z-score = -2.14; caspase robust z-score = 3.91; Outcome = inactive
NSMCE2 [SID134321961]: viability hit class = no change; caspase hit class = no change; viability robust z-score = -2.37; caspase robust z-score = 1.29; Outcome = inactive
SPMIP2 [SID135622965]: viability hit class = no change; caspase hit class = no change; viability robust z-score = 0.73; caspase robust z-score = -1.27; Outcome = inactive
SEC22C [SID134316224]: viability hit class = no change; caspase hit class = no change; viability robust z-score = 0.34; caspase robust z-score = 0.26; Outcome = inactive
WFDC5 [SID134321345]: viability hit class = no change; caspase hit class = no change; viability robust z-score = -0.26; caspase robust z-score = 0.45; Outcome = inactive
MTOR [SID135620602]: viability hit class = no change; caspase hit class = no change; viability robust z-score = -2; caspase robust z-score = 2.71; Outcome = inactive
G6PC1 [SID152155534]: viability hit class = no change; caspase hit class = no change; viability robust z-score = 0.72; caspase robust z-score = 1.03; Outcome = inactive
ING3 [SID135621292]: viability hit class = no change; caspase hit class = no change; viability robust z-score = -1.04; caspase robust z-score = -1.45; Outcome = inactive
